Test results reported in the supplement of paper PMC5355238.
Structures can show the parent of a compound that is named as a salt. This is one part of the list. Repeats are few or missing, and single values can be far off.

The molecules below were run on Reh (assay: S-phase gammaH2AX median, Z-score vs plate median (drug alone); higher = more S-phase DNA damage). Details: MK1775 concentration 0 nM; 10 µM; 4 h.

Row | SMILES | S-phase gammaH2AX median (Z-score)
1 | COc1ccc(C2CNC(=O)C2)cc1OC1CCCC1 (configuration not stated) [Rolipram] | 0.0189
2 | CC(/C=C/c1cccc(Oc2ccc(F)cc2)c1)N(O)C(N)=O (configuration not stated) | -0.0641
3 | O=c1c(O)c(-c2ccc(O)cc2O)oc2cc(O)cc(O)c12 [Morin] | -0.0733
4 | CC(=O)Nc1nc(C)c(-c2ccc(Cl)c(S(=O)(=O)NCCO)c2)s1 | -0.0785
5 | Cc1ccc([N+](=O)[O-])cc1S(=O)(=O)N(C)C | -0.103
6 | CC(C)C[C@H](NP(=O)(O)O[C@H]1O[C@H](C)[C@@H](O)[C@H](O)[C@@H]1O)C(=O)N[C@@H](Cc1c[nH]c2ccccc12)C(=O)O [Phosphoramidon disodium] | -0.0378
7 | Oc1ccc([C@@H]2CNCc3sccc32)cc1O | -0.0334
8 | COc1ccc(CCN(C)CCCC(C#N)(c2cc(OC)c(OC)c(OC)c2)C(C)C)cc1OC (configuration not stated) [(?)-Methoxyverapamil hydrochloride] | -0.0639
9 | CC[C@H](C)C(=O)O[C@H]1CCC=C2C=C[C@H](C)[C@H](CC[C@@H]3C[C@@H](O)CC(=O)O3)[C@H]21 [Mevastatin] | 0.0284
10 | NNc1nncc2ccccc12 [Hydralazine hydrochloride] | 0.0346
11 | C=CC(=O)Nc1cccc(Oc2nc(Nc3ccc(N4CCN(C)CC4)cc3OC)ncc2Cl)c1 | -0.132
12 | O=C(/C=C/c1ccc(O)c(O)c1)OCCc1ccccc1 [Caffeic acid phenethyl ester] | 0.0524
13 | CCn1cc(C(=O)O)c(=O)c2ccc(Cc3ccccc3)nc21 [Amfonelic acid] | -0.18
14 | Cc1c(C)c2c(c(C)c1O)CCC(C)(CN1CCN(c3cc(N4CCCC4)nc(N4CCCC4)n3)CC1)O2 (configuration not stated) | 0
15 | CN1CCN(CCCN2c3ccccc3Sc3ccc(Cl)cc32)CC1 [Prochlorperazine dimaleate] | -0.156
16 | CN(C)C[C@@H]1CCn2cc(c3ccccc32)C2=C(C(=O)NC2=O)c2cn(c3ccccc23)CCO1 | 0.00657
17 | CC(=O)[C@]1(O)Cc2c(O)c3c(c(O)c2[C@@H](O[C@H]2C[C@H](N)[C@H](O)[C@H](C)O2)C1)C(=O)c1ccccc1C3=O [Idarubicin] | 8.98
18 | CC(=O)[C@]1(O)Cc2c(O)c3c(c(O)c2[C@@H](O[C@H]2C[C@H](N)[C@H](O)[C@H](C)O2)C1)C(=O)c1ccccc1C3=O [Idarubicin HCl] | -0.195
19 | CS(=O)(=O)N1CCc2c(-c3cnc(N)nc3)nc(N3CCOCC3)nc21 | -0.125
20 | Cn1ccc2cc(NC(=O)Nc3cccnc3)ccc21 | 0.00388
21 | COCC[n+]1c2c(n(Cc3cnccn3)c1C)C(=O)c1ccccc1C2=O | 2.71
22 | Nc1ncnc2c1c(-c1ccc(Oc3ccccc3)cc1)cn2C1CCCC1 | -0.142

In a second layout: results already given
Row,SMILES,S-phase gammaH2AX median (Z-score)
20,Cn1ccc2cc(NC(=O)Nc3cccnc3)ccc21,0.00388
21,COCC[n+]1c2c(n(Cc3cnccn3)c1C)C(=O)c1ccccc1C2=O,2.71
